The assay is described as follows: qHTS Assay for Lipid Storage Modulators in Drosophila S3 Cells.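 For cell number change: cells counted by Cell Tracker Red CMTPX staining in the red channel.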 As to conditions: BODIPY lipid droplet fluorescence, 18-24 h; for cell number change: measured here: cell count max response, cells fed with added oleic acid. In outline:
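Drosophila S3 cells got compounds at several concentrations plus oleic acid (400 uM solution). Laser-scanning cytometry with 488 nm excitation read lipid droplets at 500-530 nm and cells at 575-640 nm. Percent activity was relative to 20 uM Triacsin C.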
In general terms: qHTS replaces the single test concentration by a dilution series.

[1] abbreviates: measured here: cell number channel AC50, cells fed with added oleic acid.
Where [2] appears, read: measured here: lipid fluorescence (Fed channel) AC50, cells fed with added oleic acid.

Some of the results follow. Further columns of the screen follow, without active or inactive calls. The list favours compounds with an active or inconclusive main result. Words in brackets tell the shape of the fitted curve; partial curves, single points and poor fits give uncertain potencies.

A word on the AC50: it is the concentration giving half of the maximal activity seen. A higher AC50 goes with weaker potency. On to `CC(C)NC(=S)NN=C1CCC(c2ccccc2)CC1` (stereo unspecified), for which the cell number change is -30.3%. Moreover, under setting [1], the AC50 is 18.4 µM [falling, single point]. Moreover, the AC50 under setting [2] was 29.1 µM [falling, partial curve, poor fit].

Take `COC(=O)c1cc(NC(=O)Nc2cccc(Cl)c2)ccc1Cl`: the cell number change is -15.3%. The half-maximal activity concentration (AC50) under setting [2] is 25.9 µM [falling, single point].

Regarding `O=C(CSc1nnc(CNc2cccc(C(F)(F)F)c2)n1Cc1ccco1)NCc1ccco1`, the cell number change was found to be 22.5%. Further, the half-maximal activity concentration (AC50) under setting [2] is 29.1 µM [falling, single point].

Regarding `CCCn1nnc(NC(=O)c2sc3ccccc3c2Cl)n1`, the cell number change stood at 3.92%. Also, the AC50 under setting [2] was 2.59 µM [rising, single point].

Consider `O=C(NCCCCNC(=O)C1CCCC1)C1CCCC1`, for which the cell number change was -24.2%. Moreover, under setting [2], the AC50 is 1.64 µM [falling, partial curve].

Consider `Cc1cccc(-n2nnc(C(=O)NCc3ccccn3)c2N)c1`, for which the AC50 reads like this: under setting [1], 2.59 µM [rising, partial curve]; under setting [2], 4.11 µM [rising, single point].

Consider `COc1ccc(C2CC(c3cccs3)=NN2C(=O)CSc2nc3ccccc3s2)cc1` (stereo unspecified), for which the cell number change was -48.4%. Moreover, under setting [1], the AC50 was 11.6 µM [falling, partial curve]. For the same molecule, under setting [2], the AC50 is 11.6 µM [falling, partial curve].

`CS(=O)(=O)N(Cc1ccc(Cl)cc1)c1ccc(C(=O)NCCSCc2ccco2)cc1`: the cell number change came out at 24.8%. Moreover, the concentration at half-maximal activity (AC50) under setting [2] was 6.51 µM [rising, single point].

With `CCOC(=O)c1c(C)[nH]c(C)c1C(=O)CSc1nnc(-c2cc(OC)c(OC)c(OC)c2)o1`, the half-maximal activity concentration (AC50) is 0.461 µM [rising, partial curve, poor fit] under setting [1] and 29.1 µM [rising, single point] under setting [2].

Regarding `O=C(CSc1ncnc2nc[nH]c12)c1ccccc1`, the AC50 is 0.013 µM [rising, full curve, poor fit] under setting [1] and 6.51 µM [rising, single point] under setting [2].

In the case of `CCC(=O)Nc1cccc(-c2nc3ncccc3o2)c1C`, the cell number change was -37.4%. Besides, under setting [1], the AC50 is 0.058 µM [falling, full curve, poor fit].

`CC1(C)Cc2c(c(N3CCOCC3)nc3sc(C(=O)Nc4cccc(Cl)c4)c(N)c23)CO1`: the cell number change was found to be 4.59%. For the same molecule, the half-maximal activity concentration (AC50) under setting [2] was 5.8 µM [falling, single point].

With `Cc1cc(C)cc(-n2ncc3c2CCCC3NC(=O)C2(C(N)=O)CC2)c1` (stereo unspecified), the cell number change is -43.7%. The AC50 under setting [1] is 9.2 µM [falling, partial curve]. In addition, under setting [2], the half-maximal activity concentration (AC50) was 3.66 µM [falling, full curve].

Regarding `COc1ccc(NC(=O)CC23CC4CC(C2)CC(n2nnc(C)n2)(C4)C3)cc1`, the cell number change amounted to 14%. For the same molecule, under setting [2], the AC50 is 0.0058 µM [rising, full curve, poor fit].

Consider `CC(C)n1cc(CNC(=O)C2CCC(=O)N(Cc3ccccc3F)C2)cn1` (stereo unspecified), for which the cell number change was 6.52%.

For `Cc1ccnc(NC(=O)c2c(-c3ccccc3Cl)noc2C)c1`, the cell number change turned out to be 8.15%. Further, the AC50 under setting [2] is 29.1 µM [falling, single point].

`O=C(Cc1ccccc1)NC(C(=O)O)C(O)c1ccc([N+](=O)[O-])cc1` (stereo unspecified): the cell number change amounted to 44.1%. Under setting [1], the AC50 was 29.1 µM [rising, single point]. Besides, under setting [2], the concentration at half-maximal activity (AC50) was 0.58 µM [rising, single point].

Turning to `O=C(Nc1ccc(Cl)cc1Cl)c1ccc(-c2ccccc2)cc1`, the cell number change came to 14.8%. In addition, the AC50 under setting [2] is 11.6 µM [rising, partial curve, poor fit].

As for `NS(=O)(=O)c1ccc(CCNc2ncnc3sccc23)cc1`, the cell number change is -53.2%. Also, the AC50 under setting [1] is 7.31 µM [falling, partial curve]. Further, the AC50 under setting [2] was 1.84 µM [falling, full curve].

For the molecule `COc1ccccc1N(C)S(=O)(=O)c1ccc(C(=O)OC(C)C(=O)NCc2ccc3c(c2)OCO3)cc1` (stereo unspecified), the cell number change came out at 20.8%. The half-maximal activity concentration (AC50) under setting [1] is 0.184 µM [rising, full curve, poor fit].

For `COc1ccc(OC)c(NC(=O)c2cc(S(=O)(=O)NCc3ccco3)ccc2F)c1`, the cell number change worked out at 10.6%. Under setting [2], the AC50 is 0.00517 µM [rising, full curve, poor fit].

As to `CCC1C(C#N)=C(SC)NC2=C1C(=O)CC(C)(C)C2` (stereo unspecified), the cell number change is 0.822%. Besides, the half-maximal activity concentration (AC50) under setting [2] is 0.13 µM [falling, full curve, poor fit].

Turning to `O=C(Nc1ccc(-c2nc3ccc(NC(=O)c4cccs4)cc3[nH]2)cc1)c1cccs1`, the cell number change is -48.4%. Further, the concentration at half-maximal activity (AC50) under setting [1] is 29.1 µM [falling, single point]. Further, the AC50 under setting [2] was 2.31 µM [rising, partial curve].

For the molecule `COc1cccc(NC(=O)COc2ncnc3sc(C)c(C)c23)c1`, under setting [1], the AC50 was 1.3 µM [rising, partial curve].

With `CN(C(=O)c1ccc(NC(=O)Cc2cccc(NC(=O)C3CCCN(C(=O)C4CCC4)C3)c2)cc1)C1CCCC1` (stereo unspecified), the cell number change was -30.2%. Moreover, the AC50 under setting [1] is 0.0103 µM [falling, full curve, poor fit]. Moreover, the half-maximal activity concentration (AC50) under setting [2] was 0.58 µM [falling, single point].

For the molecule `CCN(CC)C(=O)COc1cc(C)cc2oc(=O)cc(-c3ccccc3)c12`, the cell number change is -6.79%.

Consider `Cc1nc2ccccc2c(=O)n1-c1cccc(NS(=O)(=O)c2ccccc2)c1`, for which the concentration at half-maximal activity (AC50) under setting [2] is 14.6 µM [falling, partial curve].

As for `CC(CC1C(C#N)=C(N)OC2=C1C(=O)CCC2)c1ccccc1` (stereo unspecified), the cell number change was found to be 90.2%. Under setting [1], the half-maximal activity concentration (AC50) is 2.59 µM [rising, full curve].

On to `CC(C)c1nnc(NC(=O)c2sc3ccccc3c2Cl)s1`, for which the cell number change came out at 1.92%.

Take `O=C(CC1C(=O)NCCN1C(=S)Nc1ccccc1)Nc1ccc(F)cc1` (stereo unspecified): the cell number change is -13.4%. In addition, under setting [2], the AC50 was 0.0366 µM [falling, full curve, poor fit].

For the molecule `Cn1c(SCc2ccc(F)cc2Cl)nc2ccccc2c1=O`, the cell number change is -33.6%. Further, the concentration at half-maximal activity (AC50) under setting [1] was 29.1 µM [falling, single point]. Further, under setting [2], the AC50 is 32.6 µM [falling, partial curve, poor fit].

For `COc1ccc(S(=O)(=O)N2CCN(c3ccccn3)CC2)cc1[N+](=O)[O-]`, the cell number change is 22.8%. Besides, the half-maximal activity concentration (AC50) under setting [2] is 0.411 µM [rising, full curve, poor fit].

On to `Cc1cc([N+](=O)[O-])nn1CC(=O)NNC(=S)Nc1ccc([N+](=O)[O-])cc1`, for which the cell number change is -16.3%.

As to `COc1cccc2[nH]c3c(=O)n(CCCN4CCOCC4)cnc3c12`, the cell number change amounted to 25.3%.

On to `COc1ccc(N2CCN(C(=O)CN(Cc3ccccc3)S(C)(=O)=O)CC2)cc1`, for which the cell number change is 111%. Further, under setting [1], the AC50 is 9.2 µM [rising, partial curve].

For the origin of these results see PubChem BioAssay AID2685 (National Center for Advancing Translational Sciences (NCATS), 2010).
